The target of the assay is T1, endogenous mouse MAVS (mouse (endogenous in MEF)), Q8VCF0.
T1 chain: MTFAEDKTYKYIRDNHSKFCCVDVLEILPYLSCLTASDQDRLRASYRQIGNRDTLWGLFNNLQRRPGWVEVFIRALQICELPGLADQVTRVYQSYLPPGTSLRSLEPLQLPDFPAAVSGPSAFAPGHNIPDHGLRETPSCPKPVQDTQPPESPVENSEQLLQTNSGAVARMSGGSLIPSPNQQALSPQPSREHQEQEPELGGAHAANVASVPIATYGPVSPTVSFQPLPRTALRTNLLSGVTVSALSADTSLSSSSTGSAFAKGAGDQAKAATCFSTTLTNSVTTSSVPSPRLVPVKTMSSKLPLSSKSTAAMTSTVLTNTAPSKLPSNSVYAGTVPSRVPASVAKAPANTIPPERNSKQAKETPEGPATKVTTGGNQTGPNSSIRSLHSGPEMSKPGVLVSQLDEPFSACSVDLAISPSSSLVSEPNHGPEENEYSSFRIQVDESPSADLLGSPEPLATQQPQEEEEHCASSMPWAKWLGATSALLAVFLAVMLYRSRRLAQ
The assay is described as follows: SDD-AGE. As to conditions: remark: other sources report otherwise.

The results in this text go back to article PMC10415273.

These are yes or no findings as the source states them, for the method shown. Some results given as binding are weak or reduced against the parent protein; the word gives no strength.

B1: endogenous mouse MAVS, Q8VCF0 1-503 (protein)
chain: MTFAEDKTYKYIRDNHSKFCCVDVLEILPYLSCLTASDQDRLRASYRQIGNRDTLWGLFNNLQRRPGWVEVFIRALQICELPGLADQVTRVYQSYLPPGTSLRSLEPLQLPDFPAAVSGPSAFAPGHNIPDHGLRETPSCPKPVQDTQPPESPVENSEQLLQTNSGAVARMSGGSLIPSPNQQALSPQPSREHQEQEPELGGAHAANVASVPIATYGPVSPTVSFQPLPRTALRTNLLSGVTVSALSADTSLSSSSTGSAFAKGAGDQAKAATCFSTTLTNSVTTSSVPSPRLVPVKTMSSKLPLSSKSTAAMTSTVLTNTAPSKLPSNSVYAGTVPSRVPASVAKAPANTIPPERNSKQAKETPEGPATKVTTGGNQTGPNSSIRSLHSGPEMSKPGVLVSQLDEPFSACSVDLAISPSSSLVSEPNHGPEENEYSSFRIQVDESPSADLLGSPEPLATQQPQEEEEHCASSMPWAKWLGATSALLAVFLAVMLYRSRRLAQ
As to B1, the binding result is on record as “binds”.
